# Results of single-concentration screens

The chains behind the UniProt entries cited, without tags or fusion partners. Residues count along the entry.
UniProt P9WFT3, whole entry: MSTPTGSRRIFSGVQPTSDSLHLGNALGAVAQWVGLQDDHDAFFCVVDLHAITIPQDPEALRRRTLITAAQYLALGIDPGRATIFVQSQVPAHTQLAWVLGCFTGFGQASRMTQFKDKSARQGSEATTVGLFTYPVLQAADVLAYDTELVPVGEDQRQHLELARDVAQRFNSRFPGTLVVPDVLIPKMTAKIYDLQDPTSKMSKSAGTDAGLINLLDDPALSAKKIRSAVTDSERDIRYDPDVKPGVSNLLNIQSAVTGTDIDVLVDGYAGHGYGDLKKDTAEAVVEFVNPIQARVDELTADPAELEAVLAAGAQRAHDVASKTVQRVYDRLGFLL
UniProt Q4DA54, 1-478: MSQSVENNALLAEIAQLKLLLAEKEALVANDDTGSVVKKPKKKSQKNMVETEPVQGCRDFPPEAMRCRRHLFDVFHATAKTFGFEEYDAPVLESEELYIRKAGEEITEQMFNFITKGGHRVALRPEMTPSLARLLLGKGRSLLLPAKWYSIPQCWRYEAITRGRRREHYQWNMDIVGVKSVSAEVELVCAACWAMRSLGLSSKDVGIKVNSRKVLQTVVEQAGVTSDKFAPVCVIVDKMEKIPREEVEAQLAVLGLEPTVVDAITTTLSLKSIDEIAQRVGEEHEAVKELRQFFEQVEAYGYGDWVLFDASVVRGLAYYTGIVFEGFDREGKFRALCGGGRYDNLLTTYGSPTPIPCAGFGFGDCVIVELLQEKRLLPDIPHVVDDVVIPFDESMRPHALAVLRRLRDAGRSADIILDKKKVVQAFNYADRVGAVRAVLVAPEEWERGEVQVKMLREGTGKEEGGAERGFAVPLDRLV
UniProt Q8IDJ8, 1-583: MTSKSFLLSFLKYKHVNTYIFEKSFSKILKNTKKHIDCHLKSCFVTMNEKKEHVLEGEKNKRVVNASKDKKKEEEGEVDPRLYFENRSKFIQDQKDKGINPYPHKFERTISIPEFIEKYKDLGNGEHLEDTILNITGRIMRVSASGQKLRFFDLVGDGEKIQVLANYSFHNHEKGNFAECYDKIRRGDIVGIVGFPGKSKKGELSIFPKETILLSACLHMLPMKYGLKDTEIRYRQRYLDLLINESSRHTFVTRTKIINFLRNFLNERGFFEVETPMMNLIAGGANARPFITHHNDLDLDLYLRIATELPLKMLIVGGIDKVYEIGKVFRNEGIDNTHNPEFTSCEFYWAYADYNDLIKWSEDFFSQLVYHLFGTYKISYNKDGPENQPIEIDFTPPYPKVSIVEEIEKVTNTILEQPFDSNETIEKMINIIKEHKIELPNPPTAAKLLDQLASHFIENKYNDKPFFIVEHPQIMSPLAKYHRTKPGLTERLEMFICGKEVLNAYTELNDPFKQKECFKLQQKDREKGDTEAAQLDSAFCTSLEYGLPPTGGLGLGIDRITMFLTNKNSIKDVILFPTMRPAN
UniProt P9WNZ1, whole entry: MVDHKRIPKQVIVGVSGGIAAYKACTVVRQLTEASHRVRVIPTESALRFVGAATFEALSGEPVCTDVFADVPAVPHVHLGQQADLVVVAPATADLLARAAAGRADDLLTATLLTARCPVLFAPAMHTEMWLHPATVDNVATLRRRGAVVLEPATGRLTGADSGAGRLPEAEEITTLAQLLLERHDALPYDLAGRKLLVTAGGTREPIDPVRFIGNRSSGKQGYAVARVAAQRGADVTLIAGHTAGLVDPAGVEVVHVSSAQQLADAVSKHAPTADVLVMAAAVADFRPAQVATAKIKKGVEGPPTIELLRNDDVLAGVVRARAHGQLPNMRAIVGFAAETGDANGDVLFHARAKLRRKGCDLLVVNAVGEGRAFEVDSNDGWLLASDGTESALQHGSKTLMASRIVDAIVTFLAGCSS
UniProt I6X8D2, whole entry: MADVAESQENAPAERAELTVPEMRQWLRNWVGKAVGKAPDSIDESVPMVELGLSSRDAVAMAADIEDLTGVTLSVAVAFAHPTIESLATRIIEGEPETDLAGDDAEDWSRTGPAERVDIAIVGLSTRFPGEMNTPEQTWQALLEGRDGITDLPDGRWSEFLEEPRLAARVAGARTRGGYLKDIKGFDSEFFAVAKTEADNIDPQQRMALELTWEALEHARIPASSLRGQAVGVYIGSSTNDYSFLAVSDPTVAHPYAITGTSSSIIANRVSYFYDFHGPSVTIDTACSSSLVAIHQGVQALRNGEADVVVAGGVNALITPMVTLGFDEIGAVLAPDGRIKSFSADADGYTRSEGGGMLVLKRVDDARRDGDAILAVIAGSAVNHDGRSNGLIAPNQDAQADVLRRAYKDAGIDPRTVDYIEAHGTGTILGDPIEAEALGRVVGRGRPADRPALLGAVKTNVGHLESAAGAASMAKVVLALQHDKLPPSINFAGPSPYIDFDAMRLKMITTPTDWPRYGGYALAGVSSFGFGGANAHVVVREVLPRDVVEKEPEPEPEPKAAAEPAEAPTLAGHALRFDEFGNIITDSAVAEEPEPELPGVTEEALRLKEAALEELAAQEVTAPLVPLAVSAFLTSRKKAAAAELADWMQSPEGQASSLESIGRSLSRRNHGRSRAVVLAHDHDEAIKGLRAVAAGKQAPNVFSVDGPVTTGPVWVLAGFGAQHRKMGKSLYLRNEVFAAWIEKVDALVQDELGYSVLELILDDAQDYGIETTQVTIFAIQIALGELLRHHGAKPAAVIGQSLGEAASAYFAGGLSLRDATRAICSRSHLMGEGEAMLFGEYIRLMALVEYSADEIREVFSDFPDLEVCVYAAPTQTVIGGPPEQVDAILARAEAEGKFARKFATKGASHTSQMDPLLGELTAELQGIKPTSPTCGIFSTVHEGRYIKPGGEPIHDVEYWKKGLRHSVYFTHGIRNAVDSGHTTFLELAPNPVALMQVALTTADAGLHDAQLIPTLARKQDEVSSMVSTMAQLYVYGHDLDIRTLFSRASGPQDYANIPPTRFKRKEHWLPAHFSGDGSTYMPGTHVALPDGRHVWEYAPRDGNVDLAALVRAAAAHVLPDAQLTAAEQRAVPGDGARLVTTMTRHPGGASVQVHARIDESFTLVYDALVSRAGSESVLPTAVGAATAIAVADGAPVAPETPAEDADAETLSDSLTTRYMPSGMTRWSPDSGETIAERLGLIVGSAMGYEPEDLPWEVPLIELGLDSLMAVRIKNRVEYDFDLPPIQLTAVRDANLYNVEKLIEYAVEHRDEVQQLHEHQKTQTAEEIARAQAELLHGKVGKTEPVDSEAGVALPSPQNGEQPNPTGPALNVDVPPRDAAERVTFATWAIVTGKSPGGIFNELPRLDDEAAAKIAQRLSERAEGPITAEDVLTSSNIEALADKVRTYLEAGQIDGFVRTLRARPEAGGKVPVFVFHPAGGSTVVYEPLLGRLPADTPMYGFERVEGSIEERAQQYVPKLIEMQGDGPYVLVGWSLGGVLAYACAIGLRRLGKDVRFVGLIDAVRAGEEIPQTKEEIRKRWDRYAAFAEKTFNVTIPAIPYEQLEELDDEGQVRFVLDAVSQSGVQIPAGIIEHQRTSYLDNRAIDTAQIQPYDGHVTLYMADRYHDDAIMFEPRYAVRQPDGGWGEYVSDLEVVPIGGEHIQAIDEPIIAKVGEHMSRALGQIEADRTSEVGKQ

The values are deposited in ChEMBL (CHEMBL3988442, “University of Dundee, Small-Polar-MMV Screening Library” (2021)).

Each number is a percent effect as filed. The record does not define 0% and 100%; most values in the screen are far below 50% and negative numbers occur (in some assays of this library far below -100). The compounds are a random part of those screened.

MtTrpRS: 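Enzyme assay of tryptophanyl-tRNA synthetase; the read-out is not stated. Target: Tryptophan-tRNA ligase, Mycobacterium tuberculosis (UniProt P9WFT3). Tested at 10 µM. Direction is not recorded; retested compounds ran higher, which suggests that high means inhibition. About 65,000 compounds were tested under these conditions; 0.098% (about 64) showed 50% or more at least once.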
TcHisRS: 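Enzyme assay of histidyl-tRNA synthetase; the read-out is not stated. Target: Histidine-tRNA ligase, Trypanosoma cruzi CL Brener (UniProt Q4DA54). Tested at 30 µM. Direction is inferred from retests: higher values go with stronger inhibition. Of about 69,000 compounds tested this way, about 31 (0.045%) reached 50% or more in at least one test.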
PfKRS1: 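Enzyme assay of the cytosolic lysyl-tRNA synthetase in 384-well plates, read by luminescence. Target: Lysine-tRNA ligase, Plasmodium falciparum 3D7 (UniProt Q8IDJ8). Concentration: 30 µM. Higher reads as stronger inhibition, judged from the few compounds that gave an IC50. About 69,000 compounds were tested under these conditions; 0.071% (about 49) showed 50% or more at least once.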
CoaBC: 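Enzyme assay of CoaBC with a phosphate dye (Biomol Green) read at 650 nm. Target: Coenzyme A biosynthesis protein CoaBC, Mycobacterium tuberculosis (UniProt P9WNZ1). Compounds at 30 µM. Higher reads as stronger inhibition, judged from the few compounds that gave an IC50. Most strong results did not repeat in a second test. Of about 67,000 compounds tested this way, about 40 (0.06%) reached 50% or more in at least one test.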
Pks13 thioesterase: 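Enzyme assay of the thioesterase domain of polyketide synthase 13; the read-out is not stated. Target: Polyketide synthase Pks13, Mycobacterium tuberculosis (UniProt I6X8D2). Tested at 30 µM. The record gives no direction; the compounds picked for IC50 retests had high values, so higher reads as stronger inhibition. About 67,000 compounds were tested under these conditions; 0.46% (about 300) showed 50% or more at least once.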
Leishmania in macrophages: 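Cell assay of Leishmania donovani living inside macrophages; the read-out is not stated. Concentration: 30 µM. The record gives no direction; compounds that gave an IC50 in retests scored well above the rest, so higher reads as stronger inhibition. About 69,000 compounds were tested under these conditions; 1.5% (about 1,000) showed 50% or more at least once.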

{"compound": "CC(C)N1C[C@H](O)C[C@H]1c1nc(-c2ccc(OC(F)(F)F)cc2)no1", "MtTrpRS": -3.238, "TcHisRS": 4.95, "PfKRS1": 5.174, "CoaBC": 10.16, "Leishmania in macrophages": -14.58}
{"compound": "O=C(Cc1ccccc1Cl)Nc1cnn(C2CCOC2)c1", "stereo": "stereo not drawn", "MtTrpRS": -3.712, "TcHisRS": 2.404, "PfKRS1": -1.057, "CoaBC": 5.471, "Pks13 thioesterase": 0.02611, "Leishmania in macrophages": -11.23}
{"compound": "O=C(Cc1cnc(-c2c(Cl)cccc2Cl)s1)N1CCC2(CC1)OCCO2", "MtTrpRS": 1.877, "TcHisRS": 3.96, "PfKRS1": -2.334, "CoaBC": -1.205, "Pks13 thioesterase": -2.49, "Leishmania in macrophages": 14.68}
{"compound": "CCc1nc(C)sc1CN(Cc1ccncc1)C1CCN(C)CC1", "MtTrpRS": 0.5833, "TcHisRS": 4.663, "PfKRS1": 3.8, "CoaBC": 0.3367, "Pks13 thioesterase": -10.49, "Leishmania in macrophages": -6.767}
{"compound": "CCOCC1c2c(cnn2C)CCN1C(=O)c1cc(C)on1", "stereo": "stereo not drawn", "TcHisRS": 3.315, "PfKRS1": 3.518, "CoaBC": 2.97, "Pks13 thioesterase": -3.14}
{"compound": "O=C1Nc2ccccc2CC12CCCN2Cc1cccnc1", "stereo": "stereo not drawn", "MtTrpRS": -3.198, "TcHisRS": 4.142, "PfKRS1": 9.08, "CoaBC": -3.421, "Pks13 thioesterase": -12.51, "Leishmania in macrophages": 0.4865}
{"compound": "CN(C)C(=O)c1cccc(Nc2cnn(C)c2)c1", "MtTrpRS": 0.4244, "TcHisRS": 2.273, "PfKRS1": 2.943, "CoaBC": 1.071, "Pks13 thioesterase": -33.67, "Leishmania in macrophages": 15.53}
{"compound": "CCCN1CCCC1c1nc(Cc2ccc(F)cc2)no1", "stereo": "stereo not drawn", "MtTrpRS": 1.012, "TcHisRS": 4.433, "PfKRS1": 3.971, "CoaBC": -0.9494, "Pks13 thioesterase": -12.89, "Leishmania in macrophages": 1.533}
{"compound": "Cc1nc(NC(=O)C(C)n2ncc(Br)c2C)sc1C", "stereo": "stereo not drawn", "MtTrpRS": 0.25, "TcHisRS": 0.5181, "PfKRS1": 2.799, "CoaBC": 1.01, "Pks13 thioesterase": -7.399, "Leishmania in macrophages": -18.97}
{"compound": "[H][C@]12CC(Cn3cccn3)N(C)[C@@]1([H])CCN(Cc1nccs1)C2", "stereo": "stereo partly drawn", "Leishmania in macrophages": -8.127}
{"compound": "CN(C)C(=O)COCC1CN(C2CCC2)Cc2ncn(C)c21.O=C(O)C(F)(F)F.O=C(O)C(F)(F)F", "stereo": "stereo not drawn", "Leishmania in macrophages": -14.72}
{"compound": "CC(NCc1cn(CCC(N)=O)c2ccccc12)c1nncn1C", "stereo": "stereo not drawn", "MtTrpRS": 7.64, "TcHisRS": 3.896, "PfKRS1": 1.749, "CoaBC": 6.098, "Pks13 thioesterase": 3.645, "Leishmania in macrophages": -7.777}
{"compound": "O=C(c1ccccc1)N1CCS(=O)(=O)[C@@H]2CCNCC[C@@H]21", "MtTrpRS": -1.455, "TcHisRS": 9.677, "PfKRS1": -1.012, "CoaBC": 0.4831, "Pks13 thioesterase": -2.87}
{"compound": "Cc1ccc(-c2nc(C(=O)N3CCCCC3CNS(C)(=O)=O)cs2)cc1", "stereo": "stereo not drawn", "MtTrpRS": 6.245, "TcHisRS": 1.622, "PfKRS1": 0.4257, "CoaBC": 6.364, "Pks13 thioesterase": 6.685, "Leishmania in macrophages": -16.07}
{"compound": "CSc1ncnc(NCc2cccs2)c1C#N", "MtTrpRS": 4.25, "TcHisRS": 3.627, "PfKRS1": 16.22, "CoaBC": 2.132, "Pks13 thioesterase": -7.245, "Leishmania in macrophages": 10.2}
{"compound": "CCS(=O)(=O)N1Cc2nnn(C)c2C(COCCN(C)C)C1", "stereo": "stereo not drawn", "MtTrpRS": 1.48, "TcHisRS": 1.075, "PfKRS1": 1.835, "CoaBC": 9.937, "Pks13 thioesterase": -43.35}
{"compound": "O=C([C@H]1C[C@H]2OCC[C@H]2N(Cc2cccnc2)C1)N1CCCO1", "MtTrpRS": -2.354, "TcHisRS": 7.182, "PfKRS1": 0.8965, "CoaBC": -0.5141, "Pks13 thioesterase": -20.57}

The last 2 entries again:

{"compound": "CCS(=O)(=O)N1Cc2nnn(C)c2C(COCCN(C)C)C1", "stereo": "stereo not drawn", "MtTrpRS": 1.48, "TcHisRS": 1.075, "PfKRS1": 1.835, "CoaBC": 9.937, "Pks13 thioesterase": -43.35}
{"compound": "O=C([C@H]1C[C@H]2OCC[C@H]2N(Cc2cccnc2)C1)N1CCCO1", "MtTrpRS": -2.354, "TcHisRS": 7.182, "PfKRS1": 0.8965, "CoaBC": -0.5141, "Pks13 thioesterase": -20.57}